Laboratory results as given in patent publication US20250120399A1, “METHODS AND COMPOSITIONS FOR ALTERING METABOLITES IN VITIS SPP. AND PREVENTING PESTS AND PATHOGENS” (Impello Biosciences, Inc., priority 2022, published 2025).
Values joined by “and” are separate entries in the source; they are usually repeats but may differ in a detail not shown here. Identical values can stand only once. Further values from the same series stand in other lists.

Test system: Grapevine (Malbec variety)
Experiment: Leaf sap Brix by refractometer, Malbec field trial (Example 1)
Format: in vivo, Vitis vinifera
Settings: 2.5 mM MDJ
Experimental: An eliciting composition and methods of use to alter metabolite production were tested on 6 acres of a Malbec variety planted in 1999 in Napa Valley, California. Plants were spaced 5′×10′ (900 vines per acre) and grouped into randomized blocks of 900 vines per group, with six replicates covering three acres for the treatment group, and six replicates covering three acres for the control group. The treatment group received two applications of 32 oz of MDJ applied at a rate of 100 gallons per acre (2.5 mM), once prior to veraison on Aug. 9, 2021 and again when 5-10% of berries were starting to blush (veraison) using a ground spray rig (backpack sprayer). From within each replicate, three plants were selected at random, and 25 leaves from each plant were randomly selected for analysis. The internal sap of the leaves was tested using a refractometer on the days shown below in Table 4 and FIG. 1. Data from each replicate was averaged (25 leaves from each plant, 3 plants).

## CCCCCC1C(=O)CCC1CC(=O)OC (stereo not drawn) [MDJ, methyl dihydrojasmonate]
Replicate 2 sampled on Sep. 22, 2021, MDJ treated Plant #1, leaf no. 1-25, one line per leaf
  Brix, individual leaf: 21.9 and 26.0 (2×) and 26.7 and 23.5 and 26.5 (2×) and 22.6 (2×) and 24.8 (2×) and 27.2 and 26.1 and 25.8 and 24.9
Replicate 2 sampled on Sep. 22, 2021, MDJ treated Plant #2, leaf no. 1-25, one line per leaf
  Brix, individual leaf: 26.3 and 22.7 and 24.6 and 27.0 and 24.5 (2×) and 22.8 and 26.4 and 24.1 and 27.7 and 26.6 and 25.3
Replicate 2 sampled on Sep. 22, 2021, MDJ treated Plant #3, leaf no. 1-25, one line per leaf
  Brix, individual leaf: 26.00 (3×) and 20.00 (2×) and 19.10 and 22.80 and 19.80 and 19.40 and 27.00 and 24.00 and 23.00 and 26.20 and 22.00
Replicate 3 sampled on Sep. 30, 2021, MDJ treated Plant #1, leaf no. 1-25, one line per leaf
  Brix, individual leaf: 28.7 (2×) and 24.5 and 23.6 and 26.0 (2×) and 28.0 (2×) and 27.1 and 26.4 and 29.1 and 25.0 (2×) and 28.5 and 29.9 and 29.5 (3×) and 30.4 and 31.1 and 33.0 and 29.0 (2×) and 23.8 and 30.0
Replicate 3 sampled on Sep. 30, 2021, MDJ treated Plant #2, leaf no. 1-25, one line per leaf
  Brix, individual leaf: 29.3 and 28.0 and 29.1 and 26.8 and 28.5 and 26.4 and 29.8 (2×) and 29.9 and 28.7 and 29.4 and 28.3 and 29.5 (3×) and 33.3 and 32.0 and 32.9 and 32.5 and 28.8 and 30.4 and 29.6 and 28.6 and 28.9 and 27.1
Replicate 3 sampled on Sep. 30, 2021, MDJ treated Plant #3, leaf no. 1-25, one line per leaf
  Brix, individual leaf: 31.9 and 29.8 (3×) and 29.2 and 29.3 and 29.9 (5×) and 28.5 (2×) and 26.7 and 29.5 (3×) and 32.0 and 29.0 and 28.7 and 26.9 and 29.6 and 30.0 and 30.2 and 28.9
